Results are given in words; binding and its absence hold for the method and conditions named. For some of these results: Binding seen in cells or lysates may run through a third protein. Some results given as binding are weak or reduced against the parent protein; the word gives no strength. For some of these results: Where a sequence is shown, tags or fusion partners need not be part of it.
Key:
[1] = target: T1, GST-MIF-WT (human) (UniProt P14174); assay: pull-down; GST-MIF on GSH beads (500 ng) with 75 ng PCNA or 5 U PARP1 recombinant protein or GST protein, 0.2% Triton X-100, 50 mM Tris-HCl pH 7.5, 100 mM NaCl, 15 mM EGTA, 1 mM DTT, overnight 4 °C, immunoblot; both purified
T1 sequence: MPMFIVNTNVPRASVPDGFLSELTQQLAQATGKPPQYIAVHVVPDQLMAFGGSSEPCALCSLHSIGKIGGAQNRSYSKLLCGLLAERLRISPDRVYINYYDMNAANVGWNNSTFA

Sequences of proteins named here, by UniProt entry; tags and fusion partners are left off.
UniProt P09874: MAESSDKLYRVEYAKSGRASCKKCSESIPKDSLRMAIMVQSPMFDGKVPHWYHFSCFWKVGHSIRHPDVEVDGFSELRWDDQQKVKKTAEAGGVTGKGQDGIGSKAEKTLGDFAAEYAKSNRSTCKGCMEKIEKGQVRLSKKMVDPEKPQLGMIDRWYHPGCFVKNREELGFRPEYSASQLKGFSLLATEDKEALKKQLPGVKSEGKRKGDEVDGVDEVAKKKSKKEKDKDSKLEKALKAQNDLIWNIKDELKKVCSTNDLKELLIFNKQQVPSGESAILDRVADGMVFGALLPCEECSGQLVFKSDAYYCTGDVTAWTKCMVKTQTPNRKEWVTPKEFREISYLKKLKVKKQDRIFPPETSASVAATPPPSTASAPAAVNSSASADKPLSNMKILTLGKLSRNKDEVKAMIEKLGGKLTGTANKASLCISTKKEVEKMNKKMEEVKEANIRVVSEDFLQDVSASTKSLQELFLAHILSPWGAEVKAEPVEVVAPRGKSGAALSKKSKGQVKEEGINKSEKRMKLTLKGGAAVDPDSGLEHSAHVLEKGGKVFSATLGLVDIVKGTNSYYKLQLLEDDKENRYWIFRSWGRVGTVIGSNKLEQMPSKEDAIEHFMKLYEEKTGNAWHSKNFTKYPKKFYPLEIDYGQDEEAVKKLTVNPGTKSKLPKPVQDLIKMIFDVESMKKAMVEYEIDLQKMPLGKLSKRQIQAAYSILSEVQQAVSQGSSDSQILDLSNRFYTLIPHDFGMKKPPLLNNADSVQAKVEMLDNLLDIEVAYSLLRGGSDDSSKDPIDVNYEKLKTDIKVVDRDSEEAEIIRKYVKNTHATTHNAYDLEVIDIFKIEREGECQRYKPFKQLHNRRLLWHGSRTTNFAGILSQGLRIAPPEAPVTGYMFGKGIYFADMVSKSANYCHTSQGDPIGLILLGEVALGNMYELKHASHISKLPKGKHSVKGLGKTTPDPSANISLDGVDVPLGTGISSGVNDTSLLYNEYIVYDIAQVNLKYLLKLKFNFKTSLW
UniProt P13010: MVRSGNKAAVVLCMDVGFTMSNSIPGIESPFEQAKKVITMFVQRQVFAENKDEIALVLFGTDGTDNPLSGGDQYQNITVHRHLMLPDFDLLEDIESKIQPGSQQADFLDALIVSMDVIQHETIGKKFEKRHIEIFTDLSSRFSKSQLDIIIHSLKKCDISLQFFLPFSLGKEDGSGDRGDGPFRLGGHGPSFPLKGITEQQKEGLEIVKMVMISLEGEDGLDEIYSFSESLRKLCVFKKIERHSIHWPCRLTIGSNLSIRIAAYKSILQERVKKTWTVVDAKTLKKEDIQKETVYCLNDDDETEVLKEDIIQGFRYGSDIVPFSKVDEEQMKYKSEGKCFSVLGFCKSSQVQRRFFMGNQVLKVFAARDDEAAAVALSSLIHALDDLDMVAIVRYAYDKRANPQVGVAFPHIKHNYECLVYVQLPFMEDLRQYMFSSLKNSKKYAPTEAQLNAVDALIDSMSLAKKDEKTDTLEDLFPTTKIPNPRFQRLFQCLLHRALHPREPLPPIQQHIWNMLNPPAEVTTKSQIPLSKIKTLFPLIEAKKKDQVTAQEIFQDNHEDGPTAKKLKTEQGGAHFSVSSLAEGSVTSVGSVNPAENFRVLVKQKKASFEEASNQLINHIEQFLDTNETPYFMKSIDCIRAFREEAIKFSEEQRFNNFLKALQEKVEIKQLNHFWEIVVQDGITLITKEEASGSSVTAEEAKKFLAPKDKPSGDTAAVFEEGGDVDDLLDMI

[2] = target: T2, macrophage migration inhibitory factor (MIF), endogenous (human (endogenous in MDA-MB-231 and HeLa)) (UniProt P14174); assay: co-IP; V5-tagged full-length PARP1 and truncates with MIF; cells and antibodies not stated
T2 sequence: T1 sequence

[3] = target: T2, macrophage migration inhibitory factor (MIF), endogenous (human (endogenous in MDA-MB-231 and HeLa)); assay: co-IP; endogenous proteins, MDA-MB-231 lysate in NETN buffer (150 mM NaCl, 1 mM EDTA, 10 mM Tris-HCl pH 8.0, 0.5% IGEPAL), antibodies to MIF or PCNA with protein A/G magnetic beads overnight at 4 °C, immunoblot; also with or without Olaparib (5 uM, 2 h) after double thymidine synchronisation (more MIF-PCNA with Olaparib)

Row | Substance | binding [3] | other results
1 | PARP1 recombinant protein (from UniProt P09874 1-1014) (enzyme) | – | binding [1]: binds
2 | V5-tagged full-length (FL) PARP1 (from UniProt P09874 1-1014) (enzyme) | – | binding [2]: binds
3 | XRCC5, endogenous (from UniProt P13010 1-732) | binds | –
4 | poly(ADP-ribose) polymerase 1 (PARP1), endogenous (from UniProt P09874 1-1014) | binds | –
